# Measurements from patent publication US20130040978A1 (priority 2010, published 2013).
# Sequences of proteins named here, by UniProt entry; tags and fusion partners are left off. A change or cut given only in a name is not applied to a line headed by its entry.
# UniProt P30872: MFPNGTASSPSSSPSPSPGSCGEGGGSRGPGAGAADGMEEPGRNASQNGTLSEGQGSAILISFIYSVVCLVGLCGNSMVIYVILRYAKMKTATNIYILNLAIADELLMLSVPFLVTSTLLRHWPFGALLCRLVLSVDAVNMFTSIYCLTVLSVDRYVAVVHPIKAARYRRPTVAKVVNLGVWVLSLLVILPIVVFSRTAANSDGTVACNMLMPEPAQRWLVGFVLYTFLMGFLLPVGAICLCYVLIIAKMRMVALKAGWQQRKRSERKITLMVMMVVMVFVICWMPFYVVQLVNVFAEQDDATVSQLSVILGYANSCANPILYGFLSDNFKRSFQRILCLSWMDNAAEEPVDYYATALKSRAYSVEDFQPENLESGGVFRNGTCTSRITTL
# UniProt P30874: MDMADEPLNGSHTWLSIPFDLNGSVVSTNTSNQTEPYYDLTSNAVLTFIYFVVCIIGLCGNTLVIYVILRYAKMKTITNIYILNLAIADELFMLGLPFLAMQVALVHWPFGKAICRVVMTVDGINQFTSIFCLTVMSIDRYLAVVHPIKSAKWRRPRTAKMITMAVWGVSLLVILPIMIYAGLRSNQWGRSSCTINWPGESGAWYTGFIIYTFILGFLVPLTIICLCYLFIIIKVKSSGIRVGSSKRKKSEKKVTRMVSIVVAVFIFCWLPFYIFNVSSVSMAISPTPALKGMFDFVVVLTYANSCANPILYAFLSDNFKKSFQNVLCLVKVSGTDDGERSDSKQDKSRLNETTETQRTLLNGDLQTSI
# UniProt P32745: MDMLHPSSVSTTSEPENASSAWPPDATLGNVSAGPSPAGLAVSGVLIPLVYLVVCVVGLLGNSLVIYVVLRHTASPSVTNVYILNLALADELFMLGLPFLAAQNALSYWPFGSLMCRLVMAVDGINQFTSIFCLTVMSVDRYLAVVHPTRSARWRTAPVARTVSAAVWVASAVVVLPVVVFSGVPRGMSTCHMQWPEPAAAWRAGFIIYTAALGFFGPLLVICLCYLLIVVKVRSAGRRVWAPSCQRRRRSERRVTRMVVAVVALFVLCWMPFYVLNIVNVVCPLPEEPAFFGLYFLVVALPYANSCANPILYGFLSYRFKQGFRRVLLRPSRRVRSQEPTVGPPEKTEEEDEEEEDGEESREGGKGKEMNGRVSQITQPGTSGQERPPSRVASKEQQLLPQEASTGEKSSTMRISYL
# UniProt P31391: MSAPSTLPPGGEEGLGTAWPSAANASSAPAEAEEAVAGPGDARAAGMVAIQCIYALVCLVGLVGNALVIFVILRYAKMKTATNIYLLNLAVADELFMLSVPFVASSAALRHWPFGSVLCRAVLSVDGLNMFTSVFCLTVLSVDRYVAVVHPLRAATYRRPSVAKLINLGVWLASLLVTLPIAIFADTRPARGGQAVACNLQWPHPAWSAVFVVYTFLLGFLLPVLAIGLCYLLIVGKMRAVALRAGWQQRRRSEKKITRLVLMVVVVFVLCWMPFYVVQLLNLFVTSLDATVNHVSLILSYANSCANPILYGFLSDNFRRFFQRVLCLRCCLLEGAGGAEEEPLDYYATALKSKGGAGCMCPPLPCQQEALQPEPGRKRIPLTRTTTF
# UniProt P35346: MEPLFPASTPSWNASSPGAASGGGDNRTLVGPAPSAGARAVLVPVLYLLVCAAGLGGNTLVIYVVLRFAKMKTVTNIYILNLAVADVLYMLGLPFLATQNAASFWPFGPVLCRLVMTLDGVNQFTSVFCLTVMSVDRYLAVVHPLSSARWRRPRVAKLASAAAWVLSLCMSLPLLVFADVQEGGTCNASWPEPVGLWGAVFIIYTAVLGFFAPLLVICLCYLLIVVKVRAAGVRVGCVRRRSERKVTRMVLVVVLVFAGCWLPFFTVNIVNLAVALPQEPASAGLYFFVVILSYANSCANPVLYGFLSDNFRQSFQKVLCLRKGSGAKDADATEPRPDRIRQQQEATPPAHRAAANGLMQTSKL
# Some of these results come from one statement about several compounds together.
# Key:
# SSTR1 = target: T1, SSTR1 (Homo sapiens, UniProt P30872); assay: SSTR1 receptor-ligand binding assay, CHO-K1 cell membranes; settings: read-out: Ki against SSTR1
# T1 construct: expressed in transfected cells
# SSTR2 = target: T2, SSTR2 (Homo sapiens, UniProt P30874); assay: SSTR2 receptor-ligand binding assay, CHO-K1 cell membranes; settings: read-out: Ki against SSTR2
# T2 construct: expressed in transfected cells
# SSTR3 = target: T3, SSTR3 (Homo sapiens, UniProt P32745); assay: SSTR3 receptor-ligand binding assay, CHO-K1 cell membranes; settings: read-out: Ki against SSTR3
# T3 construct: expressed in transfected cells
# SSTR4 = target: T4, SSTR4 (Homo sapiens, UniProt P31391); assay: SSTR4 receptor-ligand binding assay, CHO-K1 cell membranes; settings: read-out: Ki against SSTR4
# T4 construct: expressed in transfected cells
# SSTR5 = SSTR5 (Homo sapiens, UniProt P35346); assay: SSTR5 receptor-ligand binding assay, CHO-K1 cell membranes, 125I-SRIF radioligand; set-up: expressed in transfected cells
# Description: The receptor-ligand binding assays of all 5 subtype of SSTRs were performed with membranes isolated from Chinese hamster ovary (CHO)-K1 cells stably expressing the cloned human somatostatin receptors in 96-well format as previous reported. (Yang et al. PNAS 95:10836-10841, (1998), Birzin et al. Anal. Biochem. 307:159-166, (2002)).
# The stable cell lines for SSTR1-SSTR5 were developed by stably transfecting with DNA for all five SSTRs using Lipofectamine. Neomycin-resistant clones were selected and maintained in medium containing 400 μg/mL G418 (Rohrer et al. Science 282:737-740, (1998)). Binding assays were performed using (3-125I-Tyr11)-SRIF-14 or (3-125I-Tyrl 1)-SRIF-28 as the radioligand (used at 0.1 nM) and The Packard Unifilter assay plate. The assay buffer consisted of 50 mM TrisHCl (pH 7.8) with 1 mM EGTA, 5 mM MgCl2, leupeptin (10 μg/mL), pepstatin (10 μg/mL), bacitracin (200 μg/mL), and aprotinin (0.5 μg/mL). CHO-K1 cell membranes, radiolabeled somatostatin, and unlabeled test compounds were resuspended or diluted in this assay buffer. Unlabeled test compounds were examined over a range of concentrations from 0.01 nM to 10,000 nM. The Ki values for compounds were determined as described by Cheng and Prusoff Biochem Pharmacol. 22:3099-3108 (1973).
SMILES,Ki (SSTR1),Ki (SSTR2),Ki (SSTR3),Ki (SSTR4),Ki against SSTR5 (SSTR5)
"CC(C)Oc1ccc(-c2ccc(F)c(F)c2F)c(CN2CCC3(CC2)CC(c2ccc(C(=O)O)cc2)=NO3)c1 [Example 14, 4-(8-{[2′,3′,4′-(propan-2-yloxy)biphenyl-2-yl]methyl}-1-oxa-2,8-diazaspiro[4.5]dec-2-en-3-yl)benzoic acid]",> 0.1 µM,> 0.1 µM,> 0.1 µM,> 0.1 µM,0.0001 to 1 µM
"CC(C)Oc1ccc(-c2cc(F)c(F)cc2F)c(CN2CCC3(CC2)CC(c2ccc(C(=O)O)cc2)=NO3)c1 [Example 15, 4-(8-{[2′,4′,5′-Trifluoro-4-(propan-2-yloxy)biphenyl-2-yl]methyl}-1-oxa-2,8-diazaspiro[4.5]dec-2-en-3-yl)benzoic acid]",> 0.1 µM,> 0.1 µM,> 0.1 µM,> 0.1 µM,0.0001 to 1 µM
"CCOc1ccc(-c2ccc(F)cc2F)c(CN2CCC3(CC2)CC(c2ccc(C(=O)O)cc2)=NO3)c1 [Example 4, 4-{8-[(4-Ethoxy-2′,4′-difluorobiphenyl-2-yl)methyl]-1-oxa-2,8-diazaspiro[4.5]dec-2-en-3-yl}benzoic acid]",> 0.1 µM,> 0.1 µM,> 0.1 µM,> 0.1 µM,0.0001 to 1 µM
"CCOc1ccc(-c2ccc(F)c(F)c2F)c(CN2CCC3(CC2)CC(c2ccc(C(=O)O)cc2)=NO3)c1 [Example 9, 4-{8-[(4-Ethoxy-2′,3′,4′-trifluorobiphenyl-2-yl)methyl]-1-oxa-2,8-diazaspiro[4.5]dec-2-en-3-yl}benzoic acid]",> 0.1 µM,> 0.1 µM,> 0.1 µM,> 0.1 µM,0.0001 to 1 µM
"CC(C)(C)n1cc(CN2CCC3(CC2)CC(c2ccc(C(=O)O)cc2)=NO3)c(-c2ccc(F)c(F)c2F)n1.O=C(O)C(F)(F)F [Example 3, 4-(8-{[1-tert-Butyl-3-(2,3,4-trifluorophenyl)-1H-pyrazol-4-yl]methyl})-1-oxa-2,8-diazaspiro[4.5]dec-2-en-3-yl)benzoic acid, TFA salt]",> 0.1 µM,> 0.1 µM,> 0.1 µM,> 0.1 µM,
"CCOc1cc(CN2CCC3(CC2)CC(c2ccc(C(=O)O)cc2)=NO3)cc(OCC)c1-c1ccc(F)cc1.O=C(O)C(F)(F)F [Example 1, 4-{8-[(2,6-Diethoxy-4′-fluorobiphenyl-4-yl)methyl]-1-oxa-2,8-diazaspiro[4.5]dec-2-en-3-yl}benzoic acid, TFA salt]",> 0.1 µM,> 0.1 µM,> 0.1 µM,> 0.1 µM,0.0001 to 1 µM
"CCOc1ccc(-c2cc(F)c(F)cc2F)c(CN2CCC3(CC2)CC(c2ccc(C(=O)O)cc2)=NO3)c1 [Example 10, 4-{8-[(4-Ethoxy-2′,4′,5′-trifluorobiphenyl-2-yl)methyl]-1-oxa-2,8-diazaspiro[4.5]dec-2-en-3-yl}benzoic acid]",> 0.1 µM,> 0.1 µM,> 0.1 µM,> 0.1 µM,0.0001 to 1 µM
"CCOc1ccc(-c2ccc(F)c(F)c2F)c(CN2CCC3(CC2)CC(c2ccc(C(=O)O)cc2)=NO3)n1 [Example 6, 4-(8-{[6-Ethoxy-3-(2,3,4-trifluorophenyl)pyridin-2-yl]methyl}-1-oxa-2,8-diazaspiro[4.5]dec-2-en-3-yl)benzoic acid]",> 0.1 µM,> 0.1 µM,> 0.1 µM,> 0.1 µM,0.0001 to 1 µM
"CCOc1cc(CN2CCC3(CC2)CC(c2ccc(C(=O)O)cc2)=NO3)ccc1Cl [Example 12, 4-[8-(4-Chloro-3-ethoxybenzyl)-1-oxa-2,8-diazaspiro[4.5]dec-2-en-3-yl]benzoic acid]",> 0.1 µM,> 0.1 µM,> 0.1 µM,> 0.1 µM,0.0001 to 1 µM
CC(C)(C)n1cc(CN2CCC3(CC2)CC(c2ccc(C(=O)O)cc2)=NO3)c(-c2ccc(F)c(F)c2F)n1.O=C(O)C(F)(F)F [Example 3],,,,,0.0001 to 1 µM
"CCOc1cc(CN2CCC3(CC2)CC(c2ccc(C(=O)O)cc2)=NO3)cc(OCC)c1OC [Example 11, 4-[8-(3,5-Diethoxy-4-methoxybenzyl)-1-oxa-2,8-diazaspiro[4.5]dec-2-en-3-yl]benzoic acid]",> 0.1 µM,> 0.1 µM,> 0.1 µM,> 0.1 µM,0.0001 to 1 µM
"CCOc1cc(CN2CCC3(CC2)CC(c2ccc(C(=O)O)cc2)=NO3)c(-c2ccc(F)c(F)c2F)cn1 [Example 7, 4-(8-{[2-Ethoxy-5-(2,3,4-trifluorophenyl)pyridin-4-yl]methyl}-1-oxa-2,8-diazaspiro[4.5]dec-2-en-3-yl)benzoic acid]",> 0.1 µM,> 0.1 µM,> 0.1 µM,> 0.1 µM,0.0001 to 1 µM
"CCOc1cc(CN2CCC3(CC2)CC(c2ccc(C(=O)O)cc2)=NO3)cc(OCC)c1OCC(F)(F)F [Example 5, 4-{8-[3,5-Diethoxy-4-(2,2,2-trifluoroethoxy)benzyl]-1-oxa-2,8-diazaspiro[4.5]dec-2-en-3-yl}benzoic acid]",> 0.1 µM,> 0.1 µM,> 0.1 µM,> 0.1 µM,0.0001 to 1 µM
"O=C(O)c1ccc(C2=NOC3(CCN(Cc4ccc(OC(F)(F)F)c(Br)c4)CC3)C2)cc1 [Example 16, 4-{8-[3-Bromo-4-(trifluoromethoxy)benzyl]-1-oxa-2,8-diazaspiro[4.5]dec-2-en-3-yl}benzoic acid]",> 0.1 µM,> 0.1 µM,> 0.1 µM,> 0.1 µM,0.0001 to 1 µM
"CC(C)Oc1ccc(-c2ccc(F)c(F)c2)c(CN2CCC3(CC2)CC(c2ccc(C(=O)O)cc2)=NO3)c1 [Example 13, 4-(8-{[3′,4′-Difluoro-4-(propan-2-yloxy)biphenyl-2-yl]methyl}-1-oxa-2,8-diazaspiro[4.5]dec-2-en-3-yl)benzoic acid]",> 0.1 µM,> 0.1 µM,> 0.1 µM,> 0.1 µM,0.0001 to 1 µM
"CCOc1ccc(-c2ccc(F)c(F)c2)c(CN2CCC3(CC2)CC(c2ccc(C(=O)O)cc2)=NO3)c1 [Example 8, 4-{8-[(4-Ethoxy-3′,4′-difluorobiphenyl-2-yl)methyl]-1-oxa-2,8-diazaspiro[4.5]dec-2-en-3-yl}benzoic acid]",> 0.1 µM,> 0.1 µM,> 0.1 µM,> 0.1 µM,0.0001 to 1 µM
